# Laboratory results reported in patent US20090305954A1 (Yeda Research and Development Co. Ltd., priority 2005, published 2009).
# Test: general procedure: Boc solid-phase peptide synthesis; 4-methyl benzhydrylamine resin (BHA)
# Settings: whole synthesis, analytical HPLC, scale of the general procedure 0.05 meq
row,Substance,final HPLC purity
1,H-LK[dL]LH[dK]L[dL][dK]HLL[dK]LL-NH2 (SMILES CC(C)C[C@H](NC(=O)[C@H](CC(C)C)NC(=O)[C@@H](CCCCN)NC(=O)[C@H](CC(C)C)NC(=O)[C@H](CC(C)C)NC(=O)[C@H](Cc1c[nH]cn1)NC(=O)[C@@H](CCCCN)NC(=O)[C@@H](CC(C)C)NC(=O)[C@H](CC(C)C)NC(=O)[C@@H](CCCCN)NC(=O)[C@H](Cc1c[nH]cn1)NC(=O)[C@H](CC(C)C)NC(=O)[C@@H](CC(C)C)NC(=O)[C@H](CCCCN)NC(=O)[C@@H](N)CC(C)C)C(N)=O),≧98%
2,H-LK[dL]LK[dK]L[dL][dK]KLL[dK]LL-NH2,≧99%

# Square brackets hold non-standard residues; d marks the D form.
